Reference: patent publication US6645728
Residue numbers refer to the chain shown, from its start. Results are given in words; binding and its absence hold for the method and conditions named. Binding seen in cells or lysates may run through a third protein. Some entries that bind do so weakly or less than the wild type. Where a sequence is shown, tags or fusion partners need not be part of it. Values belong to the binder of their own block, whether it stands above or below them.

Tests used:
[1] = molecular target: NIK-T7 (Homo sapiens (Human)) (UniProt Q99558); assay: co-immunoprecipitation from 293 lysates, anti-T7 IP, anti-Myc blot
IKKα-T7 (murine) [2] = molecular target: T1, IKKα-T7 (murine) (UniProt Q60680); assay: as above
T1 sequence (looked up): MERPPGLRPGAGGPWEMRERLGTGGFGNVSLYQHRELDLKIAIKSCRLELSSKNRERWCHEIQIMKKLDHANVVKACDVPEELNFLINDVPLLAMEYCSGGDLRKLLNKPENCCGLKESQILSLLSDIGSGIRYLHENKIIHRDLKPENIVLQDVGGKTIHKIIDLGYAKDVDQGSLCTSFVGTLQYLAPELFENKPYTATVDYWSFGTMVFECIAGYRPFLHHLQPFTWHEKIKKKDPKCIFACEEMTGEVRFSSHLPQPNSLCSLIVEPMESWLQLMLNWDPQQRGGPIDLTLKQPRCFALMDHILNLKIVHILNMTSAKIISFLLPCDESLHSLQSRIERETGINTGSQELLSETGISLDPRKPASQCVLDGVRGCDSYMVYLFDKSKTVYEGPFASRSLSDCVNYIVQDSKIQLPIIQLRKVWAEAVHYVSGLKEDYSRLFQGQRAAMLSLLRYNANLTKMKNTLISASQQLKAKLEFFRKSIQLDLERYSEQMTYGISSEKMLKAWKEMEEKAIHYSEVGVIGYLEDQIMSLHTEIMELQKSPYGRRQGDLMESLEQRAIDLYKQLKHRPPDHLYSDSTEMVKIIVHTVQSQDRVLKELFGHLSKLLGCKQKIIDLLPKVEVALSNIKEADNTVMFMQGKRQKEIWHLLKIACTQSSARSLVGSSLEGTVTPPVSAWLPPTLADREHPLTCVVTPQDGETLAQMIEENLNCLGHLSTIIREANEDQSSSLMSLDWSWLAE

IKKα-T7 (murine) [3] = molecular target: T1, IKKα-T7 (murine); assay: co-immunoprecipitation from 293 lysates, anti-T7 IP, anti-Myc blot (FIG. 8B)
IKKα-T7 (murine) [4] = molecular target: T1, IKKα-T7 (murine); assay: co-immunoprecipitation (FIGS. 8 and 9)
[5] = molecular target: NIK-T7 (Homo sapiens (Human)), Q99558; assay: co-immunoprecipitation from HeLa lysates, anti-T7 IP, anti-Myc blot; conditions: remark: other sources report otherwise
[6] = molecular target: NIK-T7 (Homo sapiens (Human)), Q99558; assay: co-immunoprecipitation from HeLa lysates, anti-T7 IP, anti-Myc blot (FIG. 5A); conditions: remark: other sources report otherwise

binding [1]: binds
B1: Myc-N200-947 (protein, not shown: small tags and cut ends)
chain: LKEPGLGQLCFKQLGEGLRPALPRSELHKLISPLQCLNHVWKLHHPQDGGPLPLPTHPFPYSRLPHPFPFHPLQPWKPHPLESFLGKLACVDSQKPLPDPHLSKLACVDSPKPLPGPHLEPSCLSRGAHEKFSVEEYLVHALQGSVSSSQAHSLTSLAKTWAARGSRSREPSPKTEDNEGVLLTEKLKPVDYEYREEVHWATHQLRLGRGSFGEVHRMEDKQTGFQCAVKKVRLEVFRAEELMACAGLTSPRIVPLYGAVREGPWVNIFMELLEGGSLGQLVKEQGCLPEDRALYYLGQALEGLEYLHSRRILHGDVKADNVLLSSDGSHAALCDFGHAVCLQPDGLGKSLLTGDYIPGTETHMAPEVVLGRSCDAKVDVWSSCCMMLHMLNGCHPWTQFFRGPLCLKIASEPPPVREIPPSCAPLTAQAIQEGLRKEPIHRVSAAELGGKVNRALQQVGGLKSPWRGEYKEPRHPPPNQANYHQTLHAQPRELSPRAPGPRPAEETTGRAPKLQPPLPPEPPEPNKSPPLTLSKEESGMWEPLPLSSLEPAPARNPSSPERKATVPEQELQQLEIELFLNSLSQPFSLEEQEQILSCLSIDSLSLSDDSEKNPSKASQSSRDTLSSGVHSWSSQAEARSSSWNMVLARGRPTDTPSYFNGVKVQIQSLNGEHLHIREFHRVKVGDIATGISSQIPAAAFSLVTKDGQPVRYDMEVPDSGIDLQCTLAPDGSFAWSWRVKHGQLENRP

binding [1]: binds
binding (IKKα-T7 (murine) [2]): binds
binding (IKKα-T7 (murine) [3]): binds
binding (IKKα-T7 (murine) [4]): binds
B2: Myc-N735-947 (protein, not shown: small tags and cut ends)
chain: EESGMWEPLPLSSLEPAPARNPSSPERKATVPEQELQQLEIELFLNSLSQPFSLEEQEQILSCLSIDSLSLSDDSEKNPSKASQSSRDTLSSGVHSWSSQAEARSSSWNMVLARGRPTDTPSYFNGVKVQIQSLNGEHLHIREFHRVKVGDIATGISSQIPAAAFSLVTKDGQPVRYDMEVPDSGIDLQCTLAPDGSFAWSWRVKHGQLENRP

binding [5]: binds
binding [6]: binds
B3: Myc-NIK, Q99558 1-947 (enzyme, not shown: small tags and cut ends)
chain: MAVMEMACPGAPGSAVGQQKELPKPKEKTPPLGKKQSSVYKLEAVEKSPVFCGKWEILNDVITKGTAKEGSEAGPAAISIIAQAECENSQEFSPTFSERIFIAGSKQYSQSESLDQIPNNVAHATEGKMARVCWKGKRRSKARKKRKKKSSKSLAHAGVALAKPLPRTPEQESCTIPVQEDESPLGAPYVRNTPQFTKPLKEPGLGQLCFKQLGEGLRPALPRSELHKLISPLQCLNHVWKLHHPQDGGPLPLPTHPFPYSRLPHPFPFHPLQPWKPHPLESFLGKLACVDSQKPLPDPHLSKLACVDSPKPLPGPHLEPSCLSRGAHEKFSVEEYLVHALQGSVSSSQAHSLTSLAKTWAARGSRSREPSPKTEDNEGVLLTEKLKPVDYEYREEVHWATHQLRLGRGSFGEVHRMEDKQTGFQCAVKKVRLEVFRAEELMACAGLTSPRIVPLYGAVREGPWVNIFMELLEGGSLGQLVKEQGCLPEDRALYYLGQALEGLEYLHSRRILHGDVKADNVLLSSDGSHAALCDFGHAVCLQPDGLGKSLLTGDYIPGTETHMAPEVVLGRSCDAKVDVWSSCCMMLHMLNGCHPWTQFFRGPLCLKIASEPPPVREIPPSCAPLTAQAIQEGLRKEPIHRVSAAELGGKVNRALQQVGGLKSPWRGEYKEPRHPPPNQANYHQTLHAQPRELSPRAPGPRPAEETTGRAPKLQPPLPPEPPEPNKSPPLTLSKEESGMWEPLPLSSLEPAPARNPSSPERKATVPEQELQQLEIELFLNSLSQPFSLEEQEQILSCLSIDSLSLSDDSEKNPSKASQSSRDTLSSGVHSWSSQAEARSSSWNMVLARGRPTDTPSYFNGVKVQIQSLNGEHLHIREFHRVKVGDIATGISSQIPAAAFSLVTKDGQPVRYDMEVPDSGIDLQCTLAPDGSFAWSWRVKHGQLENRP

binding (IKKα-T7 (murine) [2]): binds
B4: Myc-NIK-KK429/430AA (enzyme, not shown: small tags and cut ends)
chain: B3 chain with K429A, K430A
